Experimental data as given in the supplement of paper PMC10849652.
The other results are listed elsewhere or left out.

Chains of the proteins cited; added tags and fusions are not shown. Lines headed by an entry give the natural chain unless they say otherwise; changes in a name come on top.
UniProt Q6IA86: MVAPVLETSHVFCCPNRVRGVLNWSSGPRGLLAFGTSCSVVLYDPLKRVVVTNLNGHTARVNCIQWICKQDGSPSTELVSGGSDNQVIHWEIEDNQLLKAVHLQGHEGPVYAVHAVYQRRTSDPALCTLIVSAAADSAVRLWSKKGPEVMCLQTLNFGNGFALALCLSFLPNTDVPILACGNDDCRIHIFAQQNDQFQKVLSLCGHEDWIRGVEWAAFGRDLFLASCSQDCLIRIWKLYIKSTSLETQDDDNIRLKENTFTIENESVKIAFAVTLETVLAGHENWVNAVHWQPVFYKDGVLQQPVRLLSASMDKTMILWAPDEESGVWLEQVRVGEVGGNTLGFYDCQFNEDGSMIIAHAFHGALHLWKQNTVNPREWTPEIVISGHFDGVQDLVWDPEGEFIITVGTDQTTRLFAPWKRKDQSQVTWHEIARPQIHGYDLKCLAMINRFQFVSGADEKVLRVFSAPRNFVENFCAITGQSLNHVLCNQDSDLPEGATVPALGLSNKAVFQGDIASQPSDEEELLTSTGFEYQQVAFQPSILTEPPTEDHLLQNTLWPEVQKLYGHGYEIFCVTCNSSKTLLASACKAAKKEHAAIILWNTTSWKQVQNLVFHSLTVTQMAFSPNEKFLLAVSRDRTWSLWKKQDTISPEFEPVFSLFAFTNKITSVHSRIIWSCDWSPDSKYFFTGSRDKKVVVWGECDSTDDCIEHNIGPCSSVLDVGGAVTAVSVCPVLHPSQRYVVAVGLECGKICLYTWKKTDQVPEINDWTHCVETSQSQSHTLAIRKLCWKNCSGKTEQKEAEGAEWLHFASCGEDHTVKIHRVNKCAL
UniProt Q9UI10, whole entry, looked up: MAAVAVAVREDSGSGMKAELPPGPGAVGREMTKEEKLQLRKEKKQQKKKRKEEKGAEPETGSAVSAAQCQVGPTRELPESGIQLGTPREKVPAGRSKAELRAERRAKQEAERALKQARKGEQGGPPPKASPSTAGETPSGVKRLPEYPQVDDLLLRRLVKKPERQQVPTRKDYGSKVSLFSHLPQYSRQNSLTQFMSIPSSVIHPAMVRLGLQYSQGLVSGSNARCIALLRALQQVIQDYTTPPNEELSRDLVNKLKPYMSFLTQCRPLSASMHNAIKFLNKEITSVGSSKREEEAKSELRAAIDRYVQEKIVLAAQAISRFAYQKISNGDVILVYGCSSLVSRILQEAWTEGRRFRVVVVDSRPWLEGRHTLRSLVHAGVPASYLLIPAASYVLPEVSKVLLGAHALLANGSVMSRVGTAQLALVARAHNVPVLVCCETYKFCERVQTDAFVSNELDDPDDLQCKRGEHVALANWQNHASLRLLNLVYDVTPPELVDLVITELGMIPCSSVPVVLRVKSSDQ
UniProt Q13542: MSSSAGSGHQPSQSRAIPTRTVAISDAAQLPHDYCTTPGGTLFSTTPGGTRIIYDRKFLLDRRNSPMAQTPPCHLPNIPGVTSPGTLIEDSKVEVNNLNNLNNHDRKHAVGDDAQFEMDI
UniProt P47813, whole entry, looked up: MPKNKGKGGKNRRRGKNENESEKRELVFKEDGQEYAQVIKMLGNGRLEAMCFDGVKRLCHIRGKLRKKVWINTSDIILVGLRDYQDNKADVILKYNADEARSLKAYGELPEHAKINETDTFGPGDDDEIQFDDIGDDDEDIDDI
UniProt Q9HC35: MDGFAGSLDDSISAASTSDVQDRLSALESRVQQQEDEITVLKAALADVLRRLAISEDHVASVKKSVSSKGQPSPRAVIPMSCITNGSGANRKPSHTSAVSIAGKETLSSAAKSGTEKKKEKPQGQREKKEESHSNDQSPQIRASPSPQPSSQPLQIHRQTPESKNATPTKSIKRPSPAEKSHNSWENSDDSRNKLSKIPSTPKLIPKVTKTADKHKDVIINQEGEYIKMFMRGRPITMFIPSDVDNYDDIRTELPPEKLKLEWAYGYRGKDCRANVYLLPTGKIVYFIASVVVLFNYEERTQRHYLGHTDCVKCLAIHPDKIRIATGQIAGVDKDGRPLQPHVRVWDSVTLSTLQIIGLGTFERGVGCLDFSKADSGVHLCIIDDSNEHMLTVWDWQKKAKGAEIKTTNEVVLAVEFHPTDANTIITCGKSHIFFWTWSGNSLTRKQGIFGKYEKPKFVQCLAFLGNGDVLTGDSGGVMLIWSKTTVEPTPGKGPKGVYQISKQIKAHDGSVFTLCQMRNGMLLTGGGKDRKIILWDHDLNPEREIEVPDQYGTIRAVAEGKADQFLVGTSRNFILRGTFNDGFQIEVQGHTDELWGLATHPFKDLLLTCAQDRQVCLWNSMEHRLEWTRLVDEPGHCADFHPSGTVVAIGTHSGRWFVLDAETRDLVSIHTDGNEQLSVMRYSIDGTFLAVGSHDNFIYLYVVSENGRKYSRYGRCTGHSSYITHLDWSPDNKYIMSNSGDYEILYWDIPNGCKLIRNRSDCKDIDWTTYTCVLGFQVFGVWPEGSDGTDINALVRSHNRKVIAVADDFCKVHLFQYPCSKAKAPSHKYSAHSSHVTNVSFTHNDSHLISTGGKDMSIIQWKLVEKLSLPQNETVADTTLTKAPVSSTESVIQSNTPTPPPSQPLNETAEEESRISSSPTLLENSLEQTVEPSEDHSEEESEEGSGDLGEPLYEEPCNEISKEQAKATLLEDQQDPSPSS
UniProt Q9H4G0, whole entry, looked up: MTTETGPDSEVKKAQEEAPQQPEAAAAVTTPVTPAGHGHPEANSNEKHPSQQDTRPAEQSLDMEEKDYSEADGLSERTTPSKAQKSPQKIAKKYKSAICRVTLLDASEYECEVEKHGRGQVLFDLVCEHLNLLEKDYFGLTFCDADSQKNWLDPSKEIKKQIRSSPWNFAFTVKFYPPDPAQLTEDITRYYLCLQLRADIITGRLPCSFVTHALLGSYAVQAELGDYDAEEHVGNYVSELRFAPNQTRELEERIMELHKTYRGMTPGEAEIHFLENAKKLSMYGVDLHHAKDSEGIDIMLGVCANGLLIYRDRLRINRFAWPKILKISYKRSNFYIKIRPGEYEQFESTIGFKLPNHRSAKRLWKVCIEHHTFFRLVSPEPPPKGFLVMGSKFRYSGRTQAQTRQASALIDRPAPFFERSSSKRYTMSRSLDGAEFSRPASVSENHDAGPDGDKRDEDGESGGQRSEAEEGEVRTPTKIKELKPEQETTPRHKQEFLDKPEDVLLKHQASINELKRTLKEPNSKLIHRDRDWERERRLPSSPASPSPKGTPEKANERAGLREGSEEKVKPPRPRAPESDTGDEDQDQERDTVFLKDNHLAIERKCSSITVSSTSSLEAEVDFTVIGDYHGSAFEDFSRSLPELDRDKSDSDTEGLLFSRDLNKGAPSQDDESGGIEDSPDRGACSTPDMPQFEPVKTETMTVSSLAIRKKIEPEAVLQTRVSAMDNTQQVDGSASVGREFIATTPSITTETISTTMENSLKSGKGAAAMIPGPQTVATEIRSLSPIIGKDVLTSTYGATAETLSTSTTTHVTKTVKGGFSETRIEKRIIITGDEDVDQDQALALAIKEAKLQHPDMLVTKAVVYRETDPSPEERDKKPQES
UniProt P78344: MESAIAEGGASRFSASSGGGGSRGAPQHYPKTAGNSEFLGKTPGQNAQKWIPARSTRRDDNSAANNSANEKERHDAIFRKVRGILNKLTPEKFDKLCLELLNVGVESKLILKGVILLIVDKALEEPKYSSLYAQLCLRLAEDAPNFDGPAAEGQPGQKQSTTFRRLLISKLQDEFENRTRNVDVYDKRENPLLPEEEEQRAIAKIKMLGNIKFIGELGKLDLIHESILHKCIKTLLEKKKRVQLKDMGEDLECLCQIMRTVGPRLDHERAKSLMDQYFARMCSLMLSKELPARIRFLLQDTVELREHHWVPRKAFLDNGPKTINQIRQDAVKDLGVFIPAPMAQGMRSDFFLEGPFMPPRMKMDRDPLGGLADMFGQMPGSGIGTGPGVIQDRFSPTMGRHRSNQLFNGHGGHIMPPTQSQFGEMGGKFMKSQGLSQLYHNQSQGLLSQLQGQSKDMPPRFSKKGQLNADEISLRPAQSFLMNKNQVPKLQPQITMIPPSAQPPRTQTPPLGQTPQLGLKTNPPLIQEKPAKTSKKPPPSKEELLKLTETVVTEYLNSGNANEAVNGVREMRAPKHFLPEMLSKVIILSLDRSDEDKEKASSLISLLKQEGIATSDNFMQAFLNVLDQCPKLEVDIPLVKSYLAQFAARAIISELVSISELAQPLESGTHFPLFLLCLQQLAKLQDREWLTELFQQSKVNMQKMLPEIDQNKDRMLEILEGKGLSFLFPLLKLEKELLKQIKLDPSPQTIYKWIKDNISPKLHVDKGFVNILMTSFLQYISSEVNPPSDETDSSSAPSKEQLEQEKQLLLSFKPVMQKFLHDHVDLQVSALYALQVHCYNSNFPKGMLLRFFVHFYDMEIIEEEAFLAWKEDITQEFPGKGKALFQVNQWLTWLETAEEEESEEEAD
UniProt Q9UBQ5, whole entry, looked up: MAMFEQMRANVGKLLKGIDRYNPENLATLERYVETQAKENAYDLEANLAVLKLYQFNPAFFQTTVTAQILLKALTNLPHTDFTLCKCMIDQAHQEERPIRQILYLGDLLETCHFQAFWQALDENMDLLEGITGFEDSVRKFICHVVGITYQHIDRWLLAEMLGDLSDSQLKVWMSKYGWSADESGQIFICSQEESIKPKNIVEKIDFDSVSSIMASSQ
UniProt Q15029: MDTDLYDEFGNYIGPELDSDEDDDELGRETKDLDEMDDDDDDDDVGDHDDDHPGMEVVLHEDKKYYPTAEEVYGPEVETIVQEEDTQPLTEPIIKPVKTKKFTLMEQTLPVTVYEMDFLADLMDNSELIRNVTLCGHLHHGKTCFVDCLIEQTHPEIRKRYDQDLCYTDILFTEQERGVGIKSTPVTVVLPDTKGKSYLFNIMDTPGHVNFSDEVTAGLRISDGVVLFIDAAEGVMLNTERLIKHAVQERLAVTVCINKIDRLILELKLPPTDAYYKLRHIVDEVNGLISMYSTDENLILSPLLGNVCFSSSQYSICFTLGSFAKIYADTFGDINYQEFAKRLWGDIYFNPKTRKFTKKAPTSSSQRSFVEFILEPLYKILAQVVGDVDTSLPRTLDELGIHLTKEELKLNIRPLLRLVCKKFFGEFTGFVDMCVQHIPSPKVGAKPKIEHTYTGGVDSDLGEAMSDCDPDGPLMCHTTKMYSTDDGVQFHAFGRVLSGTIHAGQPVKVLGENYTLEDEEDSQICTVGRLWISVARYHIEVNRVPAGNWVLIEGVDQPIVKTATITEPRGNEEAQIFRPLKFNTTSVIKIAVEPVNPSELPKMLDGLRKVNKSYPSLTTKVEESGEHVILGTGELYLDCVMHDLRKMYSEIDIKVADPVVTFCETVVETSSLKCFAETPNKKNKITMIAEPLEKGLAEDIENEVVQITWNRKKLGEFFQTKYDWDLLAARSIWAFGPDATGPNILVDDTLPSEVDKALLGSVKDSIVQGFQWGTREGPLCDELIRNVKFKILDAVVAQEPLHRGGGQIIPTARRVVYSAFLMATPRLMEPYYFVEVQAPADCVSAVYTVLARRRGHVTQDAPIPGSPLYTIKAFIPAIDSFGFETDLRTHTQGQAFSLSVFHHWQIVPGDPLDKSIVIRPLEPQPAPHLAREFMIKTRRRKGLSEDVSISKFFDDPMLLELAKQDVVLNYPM
UniProt Q5UCC4: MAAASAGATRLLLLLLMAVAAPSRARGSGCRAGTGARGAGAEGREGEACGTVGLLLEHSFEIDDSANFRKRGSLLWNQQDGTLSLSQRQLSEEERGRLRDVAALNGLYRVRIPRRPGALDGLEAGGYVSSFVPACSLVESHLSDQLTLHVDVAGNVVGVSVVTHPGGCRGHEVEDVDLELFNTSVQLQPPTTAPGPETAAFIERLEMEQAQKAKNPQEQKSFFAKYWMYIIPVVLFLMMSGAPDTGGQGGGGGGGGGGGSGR
UniProt P41214: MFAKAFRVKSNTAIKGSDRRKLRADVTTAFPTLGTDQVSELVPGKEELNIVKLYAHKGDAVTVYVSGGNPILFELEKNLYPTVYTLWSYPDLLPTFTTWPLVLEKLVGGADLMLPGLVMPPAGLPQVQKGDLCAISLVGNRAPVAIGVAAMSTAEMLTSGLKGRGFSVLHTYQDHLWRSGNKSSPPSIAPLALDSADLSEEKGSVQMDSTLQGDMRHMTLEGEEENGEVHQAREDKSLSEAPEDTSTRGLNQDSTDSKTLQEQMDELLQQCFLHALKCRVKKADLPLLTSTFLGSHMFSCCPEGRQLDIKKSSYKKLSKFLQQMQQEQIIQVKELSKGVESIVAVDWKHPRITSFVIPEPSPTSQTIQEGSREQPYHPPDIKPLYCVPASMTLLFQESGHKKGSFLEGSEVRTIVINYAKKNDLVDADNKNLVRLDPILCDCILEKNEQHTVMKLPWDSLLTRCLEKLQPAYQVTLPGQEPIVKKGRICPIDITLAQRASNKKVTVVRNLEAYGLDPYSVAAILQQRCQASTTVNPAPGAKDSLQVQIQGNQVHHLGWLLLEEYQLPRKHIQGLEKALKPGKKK
UniProt O60739, whole entry, looked up: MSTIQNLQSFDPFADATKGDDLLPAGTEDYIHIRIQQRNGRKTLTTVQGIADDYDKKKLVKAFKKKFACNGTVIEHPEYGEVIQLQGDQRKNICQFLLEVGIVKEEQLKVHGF

What follows are targets tested with c1cn2cc(-c3ccc4cn[nH]c4c3)nc(Nc3ccc(N4CCOCC4)cc3)c2n1 [entospletinib] (assay: log2 fold change, soluble protein after heating vs DMSO (PISA); higher = thermal stabilisation; K562 cells, 10 uM, 30 min; active = over 0.2 and 3.5 SD of the protein, either way, in both replicates (recomputed)).
How it was run: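 Aliquots of K562 cells (2×10^6 cells/mL) treated with 10 μM compound for 30 min were heated for 3 min over 48°C-58°C. After pooling and extraction in PBS with 0.5% NP-40 at 4°C, soluble protein from a 21,000xg, 90 min spin was quantified by TMTpro 16plex LC-MS/MS with channel sums equalised. Thermal stability is expressed against control samples, from duplicates, as a log2 fold change.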

log2 fold change, inactive:
ENO3 (UniProt P13929) -0.054
EIF4EBP1 (UniProt Q13541) -0.025
ELP2 isoform 6 (UniProt Q6IA86) -0.019
ELP5 isoform 4 (UniProt Q8TE02) -0.029
EI24 (UniProt O14681) -0.065
EML3 isoform 2 (UniProt Q32P44) -0.145
EIF5B (UniProt O60841) -0.004
EIF3A (UniProt Q14152) 0.037
EIF3C (UniProt Q99613) 0.032
EIF2B4 isoform 2 (UniProt Q9UI10) -0.039
ELAC2 (UniProt Q9BQ52) 0.029
EIF3G (UniProt O75821) -0.011
EIF4EBP2 (UniProt Q13542) 0.016
EIF1AX (UniProt P47813) 0.031
EML4 (UniProt Q9HC35) 0.08
ENPP3 (UniProt O14638) 0.087
EPB41L1 (UniProt Q9H4G0) 0.028
EIF4G2 (UniProt P78344) 0.233
EIF2AK2 (UniProt P19525) 0.136
ELMOD2 (UniProt Q8IZ81) -0.039
EIF3K (UniProt Q9UBQ5) -0.036
EMC2 (UniProt Q15006) -0.013
ENOPH1 (UniProt Q9UHY7) 0.094
EMP3 (UniProt P54852) 0.094
EIF4E3 (UniProt Q8N5X7) 0.09
EIF4B (UniProt P23588) 0.015
EEF1A1P5 (UniProt Q5VTE0) -0.061
EFTUD2 (UniProt Q15029) -0.003
EIF3B isoform 2 (UniProt P55884) 0.048
EIF3F (UniProt O00303) 0.04
EHD4 (UniProt Q9H223) -0.021
EMC10 (UniProt Q5UCC4) 0.015
EIF2D (UniProt P41214) 0.087
ENGASE (UniProt Q8NFI3) 0.004
EMC7 (UniProt Q9NPA0) 0.004
EIF1B (UniProt O60739) 0.093

Nothing new here: an excerpt of the list.
log2 fold change, inactive:
ENPP3 (UniProt O14638) 0.087
EPB41L1 (UniProt Q9H4G0) 0.028
